{"source": "patent US20240216370A1", "about": "“TREATMENT OF CORNEAL VASCULARISATION” (VESTLANDETS INNOVASJONSSELSKAP AS, priority 2020, published 2024)", "key": {"DDR2 [1]": {"system": "DDR2", "settings": "fibroblasts from WCS patients, 0.1 μM dasatinib for 6 hours, in vitro; cited from earlier work"}, "DDR2 [2]": {"system": "DDR2", "test": "Levels of phosphorylated DDR2 in Warburg-Cinotti syndrome fibroblasts (FIG. 5)", "format": "cell-based, human", "settings": "DDR2 Y740C / L610P fibroblasts, 0.1 μM dasatinib for 6 hours"}, "[3]": {"system": "PDGFRβ (WT, N666S, P584R, R561C or W566R)", "test": "Hela cells transduced with PDGFRβ mutations treated with different RTK inhibitors (FIGS. 7A-7D)", "format": "cell-based, human", "settings": "IC50 (manufacturer) or 10x this concentration, 6 or 24 hours, serum-free media; all tested mutations"}}, "note": "Like-named read-outs stand apart in the source and are kept apart here. At least one compound was matched to its structure with a doubt left.", "data": [{"smiles": "Cc1nc(Nc2ncc(C(=O)Nc3c(C)cccc3Cl)s2)cc(N2CCN(CCO)CC2)n1", "note": "[dasatinib]", "values": [{"measurement": "levels of phosphorylated DDR2", "setting": "DDR2 [1]", "result": "normalization"}, {"measurement": "levels of phosphorylated DDR2", "setting": "DDR2 [2]", "result": "greatly reduced"}, {"measurement": "effect of RTK inhibitor on Hela cells transduced with PDGFRβ mutations", "setting": "[3]", "result": "strong effect"}]}]}
